Data from the supplement of paper PMC10849652.
Some of the results follow.

Chains of the proteins cited; added tags and fusions are not shown. Lines headed by an entry give the natural chain unless they say otherwise; changes in a name come on top.
UniProt Q9UPW5: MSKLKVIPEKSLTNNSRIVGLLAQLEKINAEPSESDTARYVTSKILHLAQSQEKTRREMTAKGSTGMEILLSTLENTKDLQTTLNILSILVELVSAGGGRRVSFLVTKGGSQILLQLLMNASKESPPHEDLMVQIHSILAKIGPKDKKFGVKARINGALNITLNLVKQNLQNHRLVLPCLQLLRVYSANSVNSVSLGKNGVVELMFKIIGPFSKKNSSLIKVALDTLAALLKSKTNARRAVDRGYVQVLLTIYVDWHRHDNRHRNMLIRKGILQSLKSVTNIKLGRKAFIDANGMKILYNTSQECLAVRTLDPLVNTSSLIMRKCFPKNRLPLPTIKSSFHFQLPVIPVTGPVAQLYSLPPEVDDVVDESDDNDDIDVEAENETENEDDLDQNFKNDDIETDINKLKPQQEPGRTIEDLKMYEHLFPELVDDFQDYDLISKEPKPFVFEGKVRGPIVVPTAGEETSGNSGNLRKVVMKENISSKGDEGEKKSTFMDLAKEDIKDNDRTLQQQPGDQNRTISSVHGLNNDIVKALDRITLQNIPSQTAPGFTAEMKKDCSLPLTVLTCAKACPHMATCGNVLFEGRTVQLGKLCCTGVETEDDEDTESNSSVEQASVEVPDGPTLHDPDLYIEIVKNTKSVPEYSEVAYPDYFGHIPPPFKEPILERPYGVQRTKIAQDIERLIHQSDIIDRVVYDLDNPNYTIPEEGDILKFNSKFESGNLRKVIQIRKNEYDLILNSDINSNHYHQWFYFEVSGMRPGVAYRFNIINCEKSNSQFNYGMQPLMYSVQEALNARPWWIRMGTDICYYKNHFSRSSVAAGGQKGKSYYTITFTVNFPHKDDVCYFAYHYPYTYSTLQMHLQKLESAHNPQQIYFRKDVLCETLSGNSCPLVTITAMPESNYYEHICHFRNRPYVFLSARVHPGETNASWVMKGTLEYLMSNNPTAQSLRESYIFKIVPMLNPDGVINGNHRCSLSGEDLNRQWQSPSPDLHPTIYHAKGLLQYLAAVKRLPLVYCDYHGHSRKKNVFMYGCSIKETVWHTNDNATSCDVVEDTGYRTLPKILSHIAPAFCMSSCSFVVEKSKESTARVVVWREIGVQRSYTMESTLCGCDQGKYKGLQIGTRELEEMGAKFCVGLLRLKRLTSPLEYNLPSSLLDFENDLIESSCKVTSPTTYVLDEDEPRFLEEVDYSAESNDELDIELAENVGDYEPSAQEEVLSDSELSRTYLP
UniProt O43823: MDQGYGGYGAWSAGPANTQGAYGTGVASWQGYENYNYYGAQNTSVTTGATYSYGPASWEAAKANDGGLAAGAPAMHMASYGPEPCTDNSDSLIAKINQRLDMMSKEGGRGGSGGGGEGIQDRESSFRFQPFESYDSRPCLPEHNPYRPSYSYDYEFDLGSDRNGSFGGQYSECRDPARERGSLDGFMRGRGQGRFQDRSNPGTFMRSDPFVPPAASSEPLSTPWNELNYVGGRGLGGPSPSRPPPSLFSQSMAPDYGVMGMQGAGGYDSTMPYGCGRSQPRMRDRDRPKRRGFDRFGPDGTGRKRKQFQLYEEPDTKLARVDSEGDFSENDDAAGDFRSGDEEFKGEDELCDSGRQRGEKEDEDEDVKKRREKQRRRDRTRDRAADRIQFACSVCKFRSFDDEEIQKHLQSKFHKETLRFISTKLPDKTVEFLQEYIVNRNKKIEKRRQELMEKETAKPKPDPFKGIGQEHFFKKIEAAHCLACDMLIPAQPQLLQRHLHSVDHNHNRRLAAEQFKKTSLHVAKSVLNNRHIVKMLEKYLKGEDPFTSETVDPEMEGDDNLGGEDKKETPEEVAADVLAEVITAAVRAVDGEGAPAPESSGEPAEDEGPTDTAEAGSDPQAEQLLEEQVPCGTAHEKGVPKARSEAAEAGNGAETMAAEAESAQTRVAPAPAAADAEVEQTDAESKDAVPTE
UniProt Q16186: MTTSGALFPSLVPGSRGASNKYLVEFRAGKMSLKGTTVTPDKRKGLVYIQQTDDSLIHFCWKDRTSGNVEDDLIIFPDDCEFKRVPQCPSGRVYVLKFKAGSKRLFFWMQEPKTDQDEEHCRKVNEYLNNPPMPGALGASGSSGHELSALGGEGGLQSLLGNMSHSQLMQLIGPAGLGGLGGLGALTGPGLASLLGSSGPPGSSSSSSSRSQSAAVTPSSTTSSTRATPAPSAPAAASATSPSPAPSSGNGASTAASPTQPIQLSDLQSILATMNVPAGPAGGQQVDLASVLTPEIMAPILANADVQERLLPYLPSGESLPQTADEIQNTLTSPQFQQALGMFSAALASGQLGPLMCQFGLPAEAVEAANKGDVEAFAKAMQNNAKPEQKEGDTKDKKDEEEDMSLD
UniProt P35612: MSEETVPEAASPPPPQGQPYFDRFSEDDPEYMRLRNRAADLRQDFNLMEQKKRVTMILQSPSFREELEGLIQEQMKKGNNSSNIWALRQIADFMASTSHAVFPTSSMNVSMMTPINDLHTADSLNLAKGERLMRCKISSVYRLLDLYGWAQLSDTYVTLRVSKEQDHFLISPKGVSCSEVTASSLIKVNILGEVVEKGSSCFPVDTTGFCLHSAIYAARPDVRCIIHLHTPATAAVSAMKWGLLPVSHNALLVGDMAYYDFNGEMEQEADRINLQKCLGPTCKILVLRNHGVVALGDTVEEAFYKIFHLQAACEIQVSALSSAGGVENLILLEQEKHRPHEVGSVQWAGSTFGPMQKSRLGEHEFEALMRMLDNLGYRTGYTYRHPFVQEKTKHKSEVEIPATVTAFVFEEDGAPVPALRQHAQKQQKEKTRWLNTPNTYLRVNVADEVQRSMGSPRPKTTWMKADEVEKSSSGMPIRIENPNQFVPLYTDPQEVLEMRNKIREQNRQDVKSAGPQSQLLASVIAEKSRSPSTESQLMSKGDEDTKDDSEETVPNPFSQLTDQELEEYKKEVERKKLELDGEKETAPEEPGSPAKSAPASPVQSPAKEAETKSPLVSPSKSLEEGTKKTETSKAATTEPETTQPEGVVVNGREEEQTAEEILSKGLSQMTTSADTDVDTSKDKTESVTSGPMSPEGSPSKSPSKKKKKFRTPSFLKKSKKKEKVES
UniProt Q9UHB7: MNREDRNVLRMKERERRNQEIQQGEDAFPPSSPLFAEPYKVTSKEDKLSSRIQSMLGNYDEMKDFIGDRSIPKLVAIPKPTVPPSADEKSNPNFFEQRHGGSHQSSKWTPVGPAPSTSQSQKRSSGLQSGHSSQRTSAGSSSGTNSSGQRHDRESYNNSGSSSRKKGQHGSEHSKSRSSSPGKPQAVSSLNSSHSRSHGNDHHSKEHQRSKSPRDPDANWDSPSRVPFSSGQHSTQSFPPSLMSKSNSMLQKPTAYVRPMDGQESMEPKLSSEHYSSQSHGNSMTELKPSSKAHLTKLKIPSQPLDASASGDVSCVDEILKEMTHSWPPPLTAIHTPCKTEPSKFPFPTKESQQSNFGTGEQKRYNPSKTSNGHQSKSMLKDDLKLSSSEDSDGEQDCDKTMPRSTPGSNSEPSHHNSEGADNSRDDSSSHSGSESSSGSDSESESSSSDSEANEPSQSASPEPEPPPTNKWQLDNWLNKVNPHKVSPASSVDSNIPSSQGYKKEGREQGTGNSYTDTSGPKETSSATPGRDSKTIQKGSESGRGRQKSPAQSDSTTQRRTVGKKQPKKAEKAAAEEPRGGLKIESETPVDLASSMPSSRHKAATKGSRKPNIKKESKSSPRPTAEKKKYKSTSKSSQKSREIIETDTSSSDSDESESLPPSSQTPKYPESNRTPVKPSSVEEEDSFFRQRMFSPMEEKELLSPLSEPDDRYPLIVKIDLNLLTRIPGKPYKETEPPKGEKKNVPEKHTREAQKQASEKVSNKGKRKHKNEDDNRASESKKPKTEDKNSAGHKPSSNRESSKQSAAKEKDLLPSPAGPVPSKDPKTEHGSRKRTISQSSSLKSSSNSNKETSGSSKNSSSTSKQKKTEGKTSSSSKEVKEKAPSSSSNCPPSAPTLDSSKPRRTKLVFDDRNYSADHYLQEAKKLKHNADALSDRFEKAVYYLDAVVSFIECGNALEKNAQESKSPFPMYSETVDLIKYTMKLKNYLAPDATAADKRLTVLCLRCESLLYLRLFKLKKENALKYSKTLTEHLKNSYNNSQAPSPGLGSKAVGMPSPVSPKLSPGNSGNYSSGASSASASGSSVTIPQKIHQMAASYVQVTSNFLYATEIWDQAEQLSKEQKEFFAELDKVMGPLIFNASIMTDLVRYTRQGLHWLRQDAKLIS
UniProt Q13443: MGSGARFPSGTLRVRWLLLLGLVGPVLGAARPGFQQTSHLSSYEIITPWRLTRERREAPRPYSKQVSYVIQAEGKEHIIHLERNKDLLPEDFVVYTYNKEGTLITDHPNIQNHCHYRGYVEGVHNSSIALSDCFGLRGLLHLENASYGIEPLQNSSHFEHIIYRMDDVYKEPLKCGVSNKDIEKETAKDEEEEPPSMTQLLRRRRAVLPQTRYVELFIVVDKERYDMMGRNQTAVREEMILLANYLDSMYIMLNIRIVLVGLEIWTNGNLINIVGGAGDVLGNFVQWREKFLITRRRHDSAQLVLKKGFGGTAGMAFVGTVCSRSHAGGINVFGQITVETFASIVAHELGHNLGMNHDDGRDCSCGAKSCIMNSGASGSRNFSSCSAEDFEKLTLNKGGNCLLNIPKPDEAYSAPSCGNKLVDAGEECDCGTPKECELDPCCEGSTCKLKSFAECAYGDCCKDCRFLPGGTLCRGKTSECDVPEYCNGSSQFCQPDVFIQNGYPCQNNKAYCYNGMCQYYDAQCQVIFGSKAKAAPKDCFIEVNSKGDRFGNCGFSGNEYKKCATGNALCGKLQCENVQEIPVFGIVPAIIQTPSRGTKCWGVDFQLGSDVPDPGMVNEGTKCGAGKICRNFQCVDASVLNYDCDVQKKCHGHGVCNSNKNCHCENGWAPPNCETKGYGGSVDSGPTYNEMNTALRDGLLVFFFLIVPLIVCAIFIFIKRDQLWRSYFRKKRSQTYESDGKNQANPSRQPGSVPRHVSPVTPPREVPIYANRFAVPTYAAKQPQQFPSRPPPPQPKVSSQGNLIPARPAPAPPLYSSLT
UniProt Q13155: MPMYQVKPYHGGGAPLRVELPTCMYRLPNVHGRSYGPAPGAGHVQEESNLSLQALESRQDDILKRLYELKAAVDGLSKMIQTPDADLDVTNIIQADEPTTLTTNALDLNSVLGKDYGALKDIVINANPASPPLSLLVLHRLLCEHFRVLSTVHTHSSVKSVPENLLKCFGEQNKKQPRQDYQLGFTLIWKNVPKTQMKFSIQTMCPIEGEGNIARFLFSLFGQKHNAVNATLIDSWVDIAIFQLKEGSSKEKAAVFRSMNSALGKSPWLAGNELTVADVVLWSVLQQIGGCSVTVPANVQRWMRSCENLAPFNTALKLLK
UniProt O14734: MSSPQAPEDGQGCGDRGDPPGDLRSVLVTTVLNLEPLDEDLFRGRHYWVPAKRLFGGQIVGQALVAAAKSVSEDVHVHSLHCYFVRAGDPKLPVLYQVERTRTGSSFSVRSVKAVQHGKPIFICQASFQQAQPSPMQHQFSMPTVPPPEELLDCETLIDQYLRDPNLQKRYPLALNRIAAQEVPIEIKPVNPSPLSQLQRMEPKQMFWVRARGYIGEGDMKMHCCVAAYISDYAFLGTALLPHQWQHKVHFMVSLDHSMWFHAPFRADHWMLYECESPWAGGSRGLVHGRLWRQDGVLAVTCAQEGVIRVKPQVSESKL
UniProt Q9UEY8: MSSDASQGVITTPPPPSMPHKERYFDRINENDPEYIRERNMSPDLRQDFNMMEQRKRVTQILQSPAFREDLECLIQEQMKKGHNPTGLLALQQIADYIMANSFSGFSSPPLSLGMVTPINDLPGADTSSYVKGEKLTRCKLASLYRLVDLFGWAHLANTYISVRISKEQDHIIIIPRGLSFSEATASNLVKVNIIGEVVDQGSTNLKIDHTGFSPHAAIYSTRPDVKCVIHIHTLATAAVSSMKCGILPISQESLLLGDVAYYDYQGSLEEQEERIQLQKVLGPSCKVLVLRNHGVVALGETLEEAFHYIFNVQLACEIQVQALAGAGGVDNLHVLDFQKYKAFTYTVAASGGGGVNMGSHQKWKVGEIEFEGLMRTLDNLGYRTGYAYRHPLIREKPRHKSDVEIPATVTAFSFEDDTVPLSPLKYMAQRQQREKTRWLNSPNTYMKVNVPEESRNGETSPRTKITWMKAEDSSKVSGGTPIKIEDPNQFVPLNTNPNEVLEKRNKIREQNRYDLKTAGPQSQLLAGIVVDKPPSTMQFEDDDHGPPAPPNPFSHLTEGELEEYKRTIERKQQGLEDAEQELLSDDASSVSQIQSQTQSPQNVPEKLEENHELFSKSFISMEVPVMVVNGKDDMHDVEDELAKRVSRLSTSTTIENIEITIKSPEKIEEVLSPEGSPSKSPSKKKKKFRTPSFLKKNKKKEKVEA

How the values were obtained:
Assay in all cases: log2 fold change, soluble protein after heating vs DMSO (PISA); higher = thermal stabilisation; K562 lysate, 10 uM; active = over 0.2 and 3.5 SD of the protein, either way, in both replicates (recomputed)
[1] = compound: Cc1cn(-c2cc(NC(=O)c3ccc(C)c(Nc4nccc(-c5cccnc5)n4)c3)cc(C(F)(F)F)c2)cn1 [nilotinib]
In short: (§1)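 A 30 min treatment with 10 μM compound was applied to crude K562 extract at 1 mg/mL protein in PBS pH 7.4 with 1 mM MgCl2. Heating for 3 min spanned 48°C-58°C, after which aliquots were pooled, adjusted to 0.5% NP-40 at 4°C and spun at 21,000xg for 90 min. TMTpro 16plex LC-MS/MS of the supernatant, with channel sums equalised, gave values recorded as log-two fold change in thermal stability against solvent controls, from duplicates.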

[2] = compound: Cc1nc(Nc2n[nH]c3c2CN(C(=O)N[C@H](CN(C)C)c2ccccc2)C3(C)C)c2sccc2n1
In short: as §1

[3] = compound: Cc1nc(Nc2ncc(C(=O)Nc3c(C)cccc3Cl)s2)cc(N2CCN(CCO)CC2)n1 [dasatinib]
In short: as §1

[4] = compound: Cc1ncc(-c2ccnc(Nc3ccc(S(C)(=O)=O)cc3)n2)n1C(C)C
In short: as §1

[5] = compound: Cn1cc(-c2ccc3c(c2)CCN3C(=O)Cc2cccc(C(F)(F)F)c2)c2c(N)ncnc21
In short: as §1

[6] = compound: Cn1cc(CNCC2CCN(c3ncc(C(=O)NO)cn3)CC2)c2ccccc21 [quisinostat]
In short: as §1

[7] = compound: Cn1cncc1[C@@](N)(c1ccc(Cl)cc1)c1ccc2c(c1)c(-c1cccc(Cl)c1)cc(=O)n2C [tipifarnib]
In short: as §1

[8] = compound: NC(=O)Nc1cc(-c2cccc(F)c2)sc1C(=O)N[C@H]1CCCNC1
In short: as §1

[9] = compound: NC(=O)c1cnc(N[C@@H]2CCCC[C@@H]2N)nc1Nc1cccc(-n2nccn2)c1
In short: as §1

[10] = compound: NC1(c2ccc(-c3nc4ccn5c(=O)[nH]nc5c4cc3-c3ccccc3)cc2)CCC1
In short: as §1

Target	log2 fold change [1]	log2 fold change [2]	log2 fold change [3]	log2 fold change [4]	log2 fold change [5]	log2 fold change [6]	log2 fold change [7]	log2 fold change [8]	log2 fold change [9]	log2 fold change [10]
AIFM2 (UniProt Q9BRQ8)	inactive: 0.057	inactive: -0.006	inactive: -0.072	inactive: -0.03	inactive: 0.024	inactive: -0.105	active: 0.411	inactive: -0.028	inactive: -0.054	inactive: 0
AGTPBP1 (UniProt Q9UPW5)	inactive: 0.077	inactive: -0.205	inactive: 0.038	inactive: 0.1	inactive: -0.032	inactive: -0.197	inactive: 0.207	inactive: 0.038	inactive: 0.045	inactive: 0.115
AGO1 (UniProt Q9UL18)	inactive: 0.037	inactive: 0.051	inactive: 0.037	inactive: -0.024	inactive: 0.002	inactive: -0.038	inactive: -0.004	inactive: 0.04	inactive: -0.015	inactive: -0.025
AKAP8 (UniProt O43823)	active: -0.3	inactive: 0.039	inactive: 0.01	inactive: -0.001	inactive: 0.006	inactive: -0.075	inactive: 0.025	inactive: 0.084	inactive: 0.022	inactive: 0.059
AGO4 (UniProt Q9HCK5)	inactive: -0.152	inactive: 0.07	inactive: 0	inactive: 0.004	inactive: -0.022	inactive: -0.037	inactive: 0.005	inactive: 0.015	inactive: 0.014	inactive: -0.002
AFDN (UniProt J3KN01)	inactive: -0.006	inactive: -0.007	inactive: -0.066	inactive: -0.027	inactive: 0.01	inactive: -0.03	inactive: 0.048	inactive: 0.033	inactive: -0.012	inactive: 0.057
ADRM1 (UniProt Q16186)	inactive: 0.002	inactive: -0.006	inactive: -0.063	inactive: 0.015	inactive: -0.003	inactive: -0.102	inactive: -0.017	inactive: 0.011	inactive: 0.008	inactive: -0.003
ADD2 (UniProt P35612)	inactive: -0.012	inactive: -0.003	inactive: 0.007	inactive: 0.001	inactive: 0.004	inactive: -0.003	inactive: 0.015	inactive: 0.024	inactive: -0.007	inactive: 0.001
AHCYL1 (UniProt O43865)	inactive: -0.077	inactive: -0.011	inactive: -0.015	inactive: 0.021	inactive: 0.02	inactive: -0.079	inactive: -0.001	inactive: 0.066	inactive: -0.005	inactive: -0.087
AFF4 (UniProt Q9UHB7)	inactive: -0.039	inactive: -0.068	inactive: 0.005	inactive: 0.012	inactive: 0.023	inactive: 0.02	inactive: 0.065	inactive: 0.032	inactive: -0.026	inactive: 0.022
ADSL (UniProt P30566)	inactive: -0.01	inactive: -0.007	inactive: 0.005	inactive: 0.013	inactive: -0.029	inactive: 0.06	inactive: 0.003	inactive: -0.019	inactive: -0.006	inactive: 0.008
ADAT3 (UniProt Q96EY9)	inactive: -0.009	inactive: -0.006	inactive: 0.024	inactive: -0.001	inactive: 0.003	inactive: 0.03	inactive: 0.004	inactive: 0.007	inactive: 0.006	inactive: 0.098
ADAM9 (UniProt Q13443)	inactive: 0.006	inactive: -0.017	inactive: 0.012	inactive: -0.011	inactive: -0.011	inactive: 0.001	inactive: 0.046	inactive: -0.016	inactive: 0.042	inactive: 0.019
ACTN4 (UniProt O43707)	inactive: 0.002	inactive: -0.008	inactive: 0.029	inactive: 0.011	inactive: -0.018	inactive: -0.018	inactive: 0.004	inactive: -0.02	inactive: -0.039	inactive: 0.01
ADPRH (UniProt P54922)	inactive: -0.168	inactive: 0.037	inactive: -0.015	inactive: -0.023	inactive: 0.002	inactive: -0.07	inactive: 0	inactive: 0.013	inactive: -0.021	inactive: 0.04
ACTG1 (UniProt I3L4N8)	inactive: -0.068	inactive: 0.104	inactive: 0.055	inactive: -0.045	inactive: -0.171	inactive: 0.032	inactive: 0.11	inactive: -0.053	inactive: -0.033	inactive: -0.114
AKAP10 (UniProt O43572)	inactive: 0.141	inactive: 0.121	inactive: -0.071	inactive: -0.043	inactive: -0.116	inactive: -0.038	inactive: -0.143	inactive: -0.081	inactive: -0.001	inactive: 0.077
AGAP1 (UniProt Q9UPQ3)	inactive: 0.019	inactive: 0.025	inactive: -0.005	inactive: 0.007	inactive: 0.022	inactive: -0.045	inactive: -0.039	inactive: 0.066	inactive: -0.018	inactive: -0.041
ACTR3 (UniProt P61158)	inactive: 0.056	inactive: 0.051	inactive: 0.093	inactive: -0.017	inactive: -0.02	inactive: 0.02	inactive: -0.032	inactive: -0.016	inactive: 0.004	inactive: 0
AIMP2 (UniProt Q13155)	inactive: 0.015	inactive: -0.015	inactive: -0.048	inactive: -0.002	inactive: -0.007	inactive: -0.009	inactive: -0.003	inactive: 0.045	inactive: -0.012	inactive: -0.007
ACTL6A (UniProt O96019)	inactive: 0.001	inactive: -0.011	inactive: -0.026	inactive: 0.029	inactive: -0.006	inactive: -0.028	inactive: 0.017	inactive: 0.008	inactive: 0.007	inactive: 0.009
ACTR3B (UniProt Q9P1U1)	inactive: 0.023	inactive: 0.15	inactive: 0.003	inactive: -0.118	inactive: 0.051	inactive: 0	inactive: 0.021	inactive: 0.069	inactive: -0.033	inactive: -0.041
AKR1C3 (UniProt P42330)	inactive: -0.007	inactive: 0.046	inactive: 0.209	inactive: -0.079	inactive: -0.038	inactive: -0.055	inactive: 0.04	inactive: 0.036	inactive: -0.059	inactive: -0.013
AK3 (UniProt Q9UIJ7)	inactive: -0.011	inactive: -0.012	inactive: 0.002	inactive: 0.011	inactive: 0.002	inactive: 0.057	inactive: 0.022	inactive: -0.014	inactive: -0.004	inactive: 0.002
ADA (UniProt P00813)	inactive: 0.007	inactive: -0.045	inactive: 0.151	inactive: 0.113	inactive: 0.03	inactive: -0.101	inactive: -0.037	inactive: -0.012	inactive: 0	inactive: 0.005
ACOT8 (UniProt O14734)	inactive: 0.008	inactive: -0.087	inactive: 0.1	inactive: 0.014	inactive: 0.019	inactive: -0.051	inactive: 0.038	inactive: 0.015	inactive: 0.028	inactive: -0.03
ACOT9 isoform 4 (UniProt Q9Y305)	inactive: -0.011	inactive: -0.051	inactive: -0.007	inactive: -0.004	inactive: 0.016	inactive: 0.019	inactive: 0.006	inactive: 0.036	inactive: 0.012	inactive: -0.099
ADD3 (UniProt Q9UEY8)	inactive: -0.002	inactive: 0.003	inactive: 0.001	inactive: 0.004	inactive: -0.006	inactive: -0.002	inactive: -0.029	inactive: -0.009	inactive: -0.003	inactive: 0.01
ADIPOR2 (UniProt Q86V24)	inactive: 0.118	inactive: -0.011	inactive: 0.038	inactive: 0.05	inactive: 0.013	inactive: -0.011	inactive: 0.037	inactive: 0.066	inactive: 0	inactive: -0.001
AKAP9 (UniProt Q99996)	inactive: 0.011	inactive: -0.039	inactive: -0.038	inactive: 0.026	inactive: -0.02	inactive: -0.007	inactive: -0.031	inactive: -0.016	inactive: 0	inactive: 0.006

Quoted at random: two entries already listed.
Target	log2 fold change [1]	log2 fold change [2]	log2 fold change [3]	log2 fold change [4]	log2 fold change [5]	log2 fold change [6]	log2 fold change [7]	log2 fold change [8]	log2 fold change [9]	log2 fold change [10]
AIFM2 (UniProt Q9BRQ8)	inactive: 0.057	inactive: -0.006	inactive: -0.072	inactive: -0.03	inactive: 0.024	inactive: -0.105	active: 0.411	inactive: -0.028	inactive: -0.054	inactive: 0
ADD3 (UniProt Q9UEY8)	inactive: -0.002	inactive: 0.003	inactive: 0.001	inactive: 0.004	inactive: -0.006	inactive: -0.002	inactive: -0.029	inactive: -0.009	inactive: -0.003	inactive: 0.01
